The reference is the same well before dosing, and untreated signal decays as well.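 Fibroblast labels denote human fibroblasts, mainly primary ones from uterus (C12385, HUF), lung (H6013), bone (Hs27A), adrenal (HADF) and skin (WS1), plus mammary HMF and breast cancer-associated Hs343T. Cancer cells are basal-like or mesenchymal-like triple-negative breast cancer lines. A hit is a response shift exceeding 3x replicate standard deviation. The tissue of the other fibroblasts is not given here.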
System: MDAMB231
Assay: relative JC-1 red fluorescence (viability) vs pre-drug, coculture with fibroblast (fraction); higher = more viable cancer cells
Settings: 100 µM
Procedure: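 JC-1 labelled TNBC cells cocultured 1:1 (1,500 cells each) with CellTrace Violet stained primary or stromal fibroblasts in 384-well plates in FluoroBrite medium, treated with one of 42 anticancer drugs at 0.1, 1, 10 or 100 uM. JC-1 red fluorescence (mitochondrial integrity in cancer cells only) was read by plate reader every 8 h for 72 h. Values are normalised to each well's pre-drug value. The stock of one drug was tenfold lower, so its dose labels may be too high.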

O=NN(CCCl)C(=O)NC1CCCCC1 [Lomustine]
relative JC-1 red fluorescence
Settings | 8 h | 16 h | 24 h | 32 h | 40 h | 48 h | 56 h | 64 h | 72 h
coculture fibroblast: C12385 | 0.723 | 0.724 | 0.636 | 0.621 | 0.546 | 0.531 | 0.486 | 0.472 | 0.459
coculture fibroblast: H6013 | 0.846 | 0.777 | 0.73 | 0.71 | 0.683 | 0.67 | 0.657 | 0.6335 | 0.5979
coculture fibroblast: H6019 | 0.819 | 0.733 | 0.677 | 0.64 | 0.591 | 0.55 | 0.518 | 0.506 | 0.477
coculture fibroblast: H6076 | 0.835 | 0.755 | 0.711 | 0.703 | 0.684 | 0.66 | 0.665 | 0.661 | 0.661
coculture fibroblast: H6231 | 0.951 | 0.854 | 0.815 | 0.765 | 0.699 | 0.658 | 0.604 | 0.575 | 0.549
coculture fibroblast: HADF | 0.8302 | 0.783 | 0.743 | 0.717 | 0.695 | 0.659 | 0.639 | 0.633 | 0.59
coculture fibroblast: HCFa | 0.874 | 0.8243 | 0.7894 | 0.758 | 0.719 | 0.675 | 0.648 | 0.617 | 0.566
coculture fibroblast: HCPF | 0.892 | 0.81 | 0.764 | 0.739 | 0.685 | 0.65 | 0.605 | 0.563 | 0.54
coculture fibroblast: HHSteC | 0.8867 | 0.846 | 0.799 | 0.759 | 0.721 | 0.68217 | 0.638 | 0.615 | 0.57
coculture fibroblast: HMF | 0.89 | 0.832 | 0.782 | 0.747 | 0.703 | 0.659 | 0.622 | 0.601 | 0.584
coculture fibroblast: HPFa | 0.924 | 0.889 | 0.8394 | 0.7936 | 0.772 | 0.73 | 0.674 | 0.643 | 0.594
coculture fibroblast: HUF | 0.819 | 0.723 | 0.729 | 0.64 | 0.575 | 0.558 | 0.515 | 0.507 | 0.5
coculture fibroblast: Hs5 | 0.8543 | 0.773 | 0.74 | 0.7 | 0.6632 | 0.615 | 0.5925 | 0.5728 | 0.567
coculture fibroblast: Hs27A | 0.892 | 0.8241 | 0.7881 | 0.7558 | 0.7082 | 0.651 | 0.647 | 0.633 | 0.586
coculture fibroblast: Hs343T | 0.832 | 0.763 | 0.725 | 0.703 | 0.6641 | 0.6308 | 0.5858 | 0.5687 | 0.538
coculture fibroblast: WS1 | 0.716 | 0.67 | 0.644 | 0.593 | 0.563 | 0.541 | 0.507 | 0.503 | 0.48

From the supplement of paper PMC6078165
